The values that follow come from the supplement of paper PMC7824004.

The other results are listed elsewhere or left out. The data scatter; read single values as rough.

For this experiment, the system named is Candida albicans SN425. In words: biofilm OD600 B-score; higher = more biofilm (less inhibition). Particulars: 10 µM; assay detail: High-throughput adherence inhibition optical density biofilm assay with C. albicans SN425 in RPMI-1640/MOPS pH 7.0, 384-well plates. …. As to the method:
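High-throughput adherence inhibition optical density biofilm assay with C. albicans SN425 in RPMI-1640/MOPS pH 7.0, 384-well plates. Compound (10 µM) was present only during the 90 min adherence step, then washed out, and the biofilm grew 24 h without compound. Biofilm was read as OD600 after removing the media. Scores are the difference from the mean in standard deviations and the plate B-score.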
With `NC(=O)C1CCN(CC(=O)Nc2ccc(F)cc2)CC1`, the “biofilm OD600 B-score” value was -1.44.
With `O=C(Nc1nc2ccccc2[nH]1)c1ccc2c(c1)OCO2`, the “biofilm OD600 B-score” value was found to be 1.9.
Regarding `Cc1cc(Cl)ccc1NC(=O)C(N)=O`, the “biofilm OD600 B-score” value was found to be 0.24.
With `O=C(NCc1ccccn1)NC1CCCCC1`, the “biofilm OD600 B-score” value is 4.13.
Then `CC(=O)Nc1ccc(Nc2nc(-c3cccs3)cs2)cc1`, with -0.703; and `CC(=O)Nc1ccc(Cl)c(C(N)=O)c1`, with -0.672.
On to `CS(=O)(=O)Nc1nc2ccc(Cl)cc2s1`, for which the “biofilm OD600 B-score” value worked out at 2.21.
On to `COc1cccc(C(=O)N2CCC(C(=O)O)CC2)c1`, for which the “biofilm OD600 B-score” value amounted to 2.3.
Then `COc1ccc(NS(C)(=O)=O)cc1OC`, with 1.17; and `C1CCCC(NCCN2CCCCC2)CCC1`, with -0.251.
Then `CC1CN(CCC(=O)Nc2ccc3c(c2)OCO3)CC(C)O1` (stereo not given), with 0.0123; and `Cc1cccc(C2NCCc3c2[nH]c2ccccc32)c1` (stereo not given), with -1.18.
On to `COc1cccc(OCC(O)CN(C)C2CCCCC2)c1` (stereo not given), for which the “biofilm OD600 B-score” value is -1.51.
`O=C(NCc1cccs1)c1ccc2c(c1)OCO2`: the “biofilm OD600 B-score” value is -1.39.
Then `COc1ccc(S(=O)(=O)N2CCC(C(=O)N3CCCC3)CC2)cc1`, with -1.
For `CC1=CC(C)(C)C(C(=O)O)C(C(=O)O)C1` (stereo not given), the “biofilm OD600 B-score” value was determined as 0.361.
As for `CCCN(CCO)Cc1cc(OC)c(OC)cc1Br`, the “biofilm OD600 B-score” value is -0.0218.
On to `CCSc1nnc(NS(=O)(=O)c2ccc(OC)cc2)s1`, for which the “biofilm OD600 B-score” value turned out to be 0.267.
The result for `OC1(C#CCN2CCOCC2)CCCCC1` reads 1.81; that for `NC(=O)CSCc1ccccc1Cl`, -2.62.
Take `Nc1cccc2ccc(N3CCOCC3)nc12`: the “biofilm OD600 B-score” value was -0.594.
Then `COc1cccc(OC)c1C(=O)NCC#N`, with 1.67.
For `CCCSc1nc(O)cc(=O)n1C`, the “biofilm OD600 B-score” value was found to be 0.173.
The result for `COc1ccc(-n2nnnc2SCC(=O)NC(C)(C)C)cc1` reads -1.58.
Take `CCc1ccccc1NS(=O)(=O)c1ccc(NC(C)=O)cc1`: the “biofilm OD600 B-score” value is -3.36.
Consider `COc1ccc(C(=O)Nc2ccccc2F)cc1S(=O)(=O)N1CCOCC1`, for which the “biofilm OD600 B-score” value is 0.415.
`OC1CCN(Cc2ccc(Cl)c(Cl)c2)CC1`: the “biofilm OD600 B-score” value is 0.757.
Consider `OC(COCCC12CC3CC(CC(C3)C1)C2)CN1CCOCC1` (stereo not given), for which the “biofilm OD600 B-score” value is -2.12.
Then `O=C(C1CCN(S(=O)(=O)c2ccc(F)cc2)CC1)N1CCCC1`, with 0.639; and `COc1ccc(NC(=O)[C@@H]2C3C=CC(C3)[C@@H]2C(=O)O)cc1` (stereo not given in full), with 0.0522; and `CSc1nc(N)c2c3c(sc2n1)CCC3`, with -0.798.
For the compound `OCC1CCCCCN1` (stereo not given), the “biofilm OD600 B-score” value was determined as 2.32.
Consider `CC(C)c1ccc(CN2CCOCC2)cc1`, for which the “biofilm OD600 B-score” value was determined as 1.69.
Consider `CC(=O)Nc1nc(-c2c(F)c(F)c(F)c(F)c2F)cs1`, for which the “biofilm OD600 B-score” value was -0.595.
The result for `O=C(O)C1CCCCC1C(=O)NCc1ccncc1` (stereo not given) reads -1.55; that for `CC(=O)Nc1c(Cl)cnn(-c2ccccc2)c1=O`, 0.731; that for `O=C(NCc1ccccc1)Nc1ccc2snnc2c1`, -0.879.
On to `COc1ccc(CCNC(=O)c2ccoc2C)cc1OC`, for which the “biofilm OD600 B-score” value is 3.48.
Regarding `Cc1ccc(S(=O)(=O)Nc2ccccc2C(=O)N2CCCC2)cc1`, the “biofilm OD600 B-score” value was 0.0294.
For the compound `Cc1cc(N2CCC(C)CC2)nc(-n2nc(C)cc2C)n1`, the “biofilm OD600 B-score” value was -0.148.
